Assay in all cases: log2 fold change, soluble protein after heating vs DMSO (PISA); higher = thermal stabilisation; K562 cells, 10 uM, 30 min; active = over 0.2 and 3.5 SD of the protein, either way, in both replicates (recomputed)
Compound in assay [1]: CC1=C(C=C(C=C1)NC(=O)C2=CC(=CC=C2)C(C)(C)C#N)NC3=CC4=C(C=C3)N=CN(C4=O)C
The gist of the method: (§1)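 Aliquots of K562 cells (2×10^6 cells/mL) treated with 10 μM compound for 30 min were heated for 3 min over 48°C-58°C. After pooling and extraction in PBS with 0.5% NP-40 at 4°C, soluble protein from a 21,000xg, 90 min spin was quantified by TMTpro 16plex LC-MS/MS with channel sums equalised. Thermal stability is expressed against control samples, from duplicates, as a log2 fold change.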

Amino acid sequences for entries named in this document (tags omitted). A change or cut given only in a name is not applied to a line headed by its entry.
UniProt Q9H6S3: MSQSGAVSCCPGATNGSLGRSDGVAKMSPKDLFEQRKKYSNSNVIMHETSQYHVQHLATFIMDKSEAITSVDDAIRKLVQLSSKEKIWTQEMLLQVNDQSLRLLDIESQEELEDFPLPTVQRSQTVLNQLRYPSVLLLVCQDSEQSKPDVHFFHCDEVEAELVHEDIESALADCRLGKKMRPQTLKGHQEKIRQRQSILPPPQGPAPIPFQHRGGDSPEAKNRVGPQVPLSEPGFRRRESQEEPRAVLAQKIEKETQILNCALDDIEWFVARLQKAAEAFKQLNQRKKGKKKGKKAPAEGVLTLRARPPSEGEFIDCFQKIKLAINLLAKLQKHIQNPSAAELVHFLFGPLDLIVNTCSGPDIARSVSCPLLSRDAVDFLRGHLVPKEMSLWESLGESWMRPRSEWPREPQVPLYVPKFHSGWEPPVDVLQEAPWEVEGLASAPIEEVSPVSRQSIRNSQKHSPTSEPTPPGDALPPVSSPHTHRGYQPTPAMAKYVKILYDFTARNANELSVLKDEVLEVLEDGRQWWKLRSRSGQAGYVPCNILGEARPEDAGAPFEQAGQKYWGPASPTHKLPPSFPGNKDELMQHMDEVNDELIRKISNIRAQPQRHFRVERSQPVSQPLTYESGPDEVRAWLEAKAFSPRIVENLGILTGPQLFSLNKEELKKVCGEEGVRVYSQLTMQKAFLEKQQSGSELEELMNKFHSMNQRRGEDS
UniProt Q9P2D6: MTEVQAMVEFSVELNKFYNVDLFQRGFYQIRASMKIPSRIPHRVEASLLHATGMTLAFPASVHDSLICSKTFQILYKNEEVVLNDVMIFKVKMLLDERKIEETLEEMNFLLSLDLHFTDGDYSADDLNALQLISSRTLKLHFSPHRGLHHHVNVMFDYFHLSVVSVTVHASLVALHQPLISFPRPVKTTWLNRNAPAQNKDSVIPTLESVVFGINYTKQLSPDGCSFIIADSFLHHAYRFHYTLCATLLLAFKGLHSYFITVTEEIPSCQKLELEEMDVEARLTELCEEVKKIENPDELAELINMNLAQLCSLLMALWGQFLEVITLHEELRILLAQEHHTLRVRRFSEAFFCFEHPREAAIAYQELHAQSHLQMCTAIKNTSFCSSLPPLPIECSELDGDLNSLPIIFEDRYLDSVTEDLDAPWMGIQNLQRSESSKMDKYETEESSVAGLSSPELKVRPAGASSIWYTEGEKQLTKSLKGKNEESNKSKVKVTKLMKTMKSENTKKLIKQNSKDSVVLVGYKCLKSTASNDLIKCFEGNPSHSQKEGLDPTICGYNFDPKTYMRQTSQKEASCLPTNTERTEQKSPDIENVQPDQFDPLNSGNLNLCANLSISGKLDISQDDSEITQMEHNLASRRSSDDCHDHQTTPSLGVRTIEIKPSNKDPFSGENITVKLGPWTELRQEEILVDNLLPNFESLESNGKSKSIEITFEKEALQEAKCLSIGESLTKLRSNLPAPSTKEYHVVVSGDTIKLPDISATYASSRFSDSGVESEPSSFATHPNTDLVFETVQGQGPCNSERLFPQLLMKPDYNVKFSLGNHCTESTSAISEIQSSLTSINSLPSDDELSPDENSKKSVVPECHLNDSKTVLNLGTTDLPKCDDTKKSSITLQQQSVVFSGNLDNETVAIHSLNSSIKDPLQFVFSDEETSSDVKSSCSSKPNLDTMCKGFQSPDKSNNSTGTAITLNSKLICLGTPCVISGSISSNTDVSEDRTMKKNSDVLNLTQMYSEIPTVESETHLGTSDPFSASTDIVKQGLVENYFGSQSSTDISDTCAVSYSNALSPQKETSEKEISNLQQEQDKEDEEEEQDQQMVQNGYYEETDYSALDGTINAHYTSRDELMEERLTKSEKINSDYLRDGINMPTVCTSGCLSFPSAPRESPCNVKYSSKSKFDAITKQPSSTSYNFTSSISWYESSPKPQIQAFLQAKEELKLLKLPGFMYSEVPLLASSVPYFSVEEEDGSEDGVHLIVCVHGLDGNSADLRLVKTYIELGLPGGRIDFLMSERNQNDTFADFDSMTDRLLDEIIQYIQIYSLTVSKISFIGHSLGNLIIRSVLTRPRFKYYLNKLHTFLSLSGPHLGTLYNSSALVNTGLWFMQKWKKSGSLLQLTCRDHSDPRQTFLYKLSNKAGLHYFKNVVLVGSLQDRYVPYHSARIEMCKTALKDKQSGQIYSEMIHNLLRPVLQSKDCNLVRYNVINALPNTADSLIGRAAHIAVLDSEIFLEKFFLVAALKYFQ
UniProt Q9H501: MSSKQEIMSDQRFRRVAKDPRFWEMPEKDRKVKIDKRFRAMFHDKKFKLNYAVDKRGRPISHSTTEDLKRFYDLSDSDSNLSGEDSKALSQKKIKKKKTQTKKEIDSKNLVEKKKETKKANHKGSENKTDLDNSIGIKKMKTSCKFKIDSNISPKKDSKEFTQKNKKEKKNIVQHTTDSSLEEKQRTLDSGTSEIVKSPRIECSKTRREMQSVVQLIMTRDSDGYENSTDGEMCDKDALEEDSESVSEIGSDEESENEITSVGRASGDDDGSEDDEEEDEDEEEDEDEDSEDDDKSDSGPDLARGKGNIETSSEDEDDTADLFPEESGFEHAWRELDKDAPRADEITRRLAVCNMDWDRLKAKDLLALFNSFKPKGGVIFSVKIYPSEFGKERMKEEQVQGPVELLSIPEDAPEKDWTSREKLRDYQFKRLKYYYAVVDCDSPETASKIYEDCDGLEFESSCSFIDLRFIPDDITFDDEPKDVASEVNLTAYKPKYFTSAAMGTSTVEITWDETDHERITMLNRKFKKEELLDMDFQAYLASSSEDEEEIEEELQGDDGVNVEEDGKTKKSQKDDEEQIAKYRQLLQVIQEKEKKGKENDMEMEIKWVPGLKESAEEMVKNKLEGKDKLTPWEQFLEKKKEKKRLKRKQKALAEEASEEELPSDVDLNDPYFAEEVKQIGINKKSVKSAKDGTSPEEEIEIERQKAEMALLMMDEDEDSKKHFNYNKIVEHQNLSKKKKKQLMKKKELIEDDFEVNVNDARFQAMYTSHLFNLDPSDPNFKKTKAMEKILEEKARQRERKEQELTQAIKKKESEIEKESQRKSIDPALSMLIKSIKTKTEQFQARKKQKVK
UniProt O75460: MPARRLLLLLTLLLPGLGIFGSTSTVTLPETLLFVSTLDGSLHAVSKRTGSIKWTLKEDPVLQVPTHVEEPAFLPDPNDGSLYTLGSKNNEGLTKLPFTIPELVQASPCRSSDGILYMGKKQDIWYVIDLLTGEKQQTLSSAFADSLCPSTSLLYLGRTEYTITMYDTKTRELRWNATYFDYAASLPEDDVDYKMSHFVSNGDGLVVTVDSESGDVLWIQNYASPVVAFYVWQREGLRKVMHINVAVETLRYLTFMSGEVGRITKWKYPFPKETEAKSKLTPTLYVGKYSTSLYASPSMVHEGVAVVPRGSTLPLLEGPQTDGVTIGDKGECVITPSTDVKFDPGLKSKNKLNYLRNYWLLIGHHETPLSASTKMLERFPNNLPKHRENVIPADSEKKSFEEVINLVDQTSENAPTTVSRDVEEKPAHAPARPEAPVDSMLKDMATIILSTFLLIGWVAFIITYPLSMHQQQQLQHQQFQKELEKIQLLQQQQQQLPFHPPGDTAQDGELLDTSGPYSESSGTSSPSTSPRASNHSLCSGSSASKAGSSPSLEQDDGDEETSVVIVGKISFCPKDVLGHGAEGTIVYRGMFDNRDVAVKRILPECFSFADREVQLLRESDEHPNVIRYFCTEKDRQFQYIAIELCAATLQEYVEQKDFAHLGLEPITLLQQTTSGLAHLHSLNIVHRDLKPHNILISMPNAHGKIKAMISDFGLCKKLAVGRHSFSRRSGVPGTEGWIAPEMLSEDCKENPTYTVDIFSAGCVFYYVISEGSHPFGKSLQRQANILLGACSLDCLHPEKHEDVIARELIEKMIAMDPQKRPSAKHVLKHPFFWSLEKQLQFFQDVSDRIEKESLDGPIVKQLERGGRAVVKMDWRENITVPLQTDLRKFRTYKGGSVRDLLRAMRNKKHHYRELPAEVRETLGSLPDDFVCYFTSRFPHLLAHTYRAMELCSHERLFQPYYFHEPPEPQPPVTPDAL
UniProt Q9Y2C4: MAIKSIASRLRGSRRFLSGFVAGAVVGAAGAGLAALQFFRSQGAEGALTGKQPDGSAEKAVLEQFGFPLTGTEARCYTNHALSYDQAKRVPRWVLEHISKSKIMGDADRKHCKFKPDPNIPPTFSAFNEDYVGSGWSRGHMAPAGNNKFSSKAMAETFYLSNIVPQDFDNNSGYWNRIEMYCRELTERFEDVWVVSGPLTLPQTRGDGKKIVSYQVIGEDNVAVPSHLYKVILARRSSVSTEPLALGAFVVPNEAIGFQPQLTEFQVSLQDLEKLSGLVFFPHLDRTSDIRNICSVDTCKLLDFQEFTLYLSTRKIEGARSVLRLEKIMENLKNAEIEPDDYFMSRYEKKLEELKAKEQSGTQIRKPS
UniProt Q9NVH0: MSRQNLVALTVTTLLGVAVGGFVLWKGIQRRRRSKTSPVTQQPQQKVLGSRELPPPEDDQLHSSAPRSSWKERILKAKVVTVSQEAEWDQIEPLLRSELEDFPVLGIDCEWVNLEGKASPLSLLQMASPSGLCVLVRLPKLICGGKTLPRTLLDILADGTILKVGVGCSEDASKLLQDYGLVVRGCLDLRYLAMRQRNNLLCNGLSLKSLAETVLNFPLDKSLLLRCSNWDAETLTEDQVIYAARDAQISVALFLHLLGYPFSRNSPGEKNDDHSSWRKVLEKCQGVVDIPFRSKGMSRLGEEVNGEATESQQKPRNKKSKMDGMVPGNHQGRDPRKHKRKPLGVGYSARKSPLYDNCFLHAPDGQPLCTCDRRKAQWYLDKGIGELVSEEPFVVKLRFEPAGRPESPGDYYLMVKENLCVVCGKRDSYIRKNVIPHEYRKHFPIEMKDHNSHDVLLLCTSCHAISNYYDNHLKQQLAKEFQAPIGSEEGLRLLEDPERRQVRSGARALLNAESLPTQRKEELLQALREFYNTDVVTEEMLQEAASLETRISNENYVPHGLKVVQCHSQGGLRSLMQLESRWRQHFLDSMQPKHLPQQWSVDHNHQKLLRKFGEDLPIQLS
UniProt Q6P2I3: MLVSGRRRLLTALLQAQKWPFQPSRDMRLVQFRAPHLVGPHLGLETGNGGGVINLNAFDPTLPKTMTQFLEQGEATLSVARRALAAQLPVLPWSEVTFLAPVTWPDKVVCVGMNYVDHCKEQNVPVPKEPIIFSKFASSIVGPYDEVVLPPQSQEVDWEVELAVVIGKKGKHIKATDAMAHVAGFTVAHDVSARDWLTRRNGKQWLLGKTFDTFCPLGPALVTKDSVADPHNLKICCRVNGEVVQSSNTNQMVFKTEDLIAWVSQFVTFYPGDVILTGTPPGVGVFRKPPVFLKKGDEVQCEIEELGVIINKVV
UniProt O75616: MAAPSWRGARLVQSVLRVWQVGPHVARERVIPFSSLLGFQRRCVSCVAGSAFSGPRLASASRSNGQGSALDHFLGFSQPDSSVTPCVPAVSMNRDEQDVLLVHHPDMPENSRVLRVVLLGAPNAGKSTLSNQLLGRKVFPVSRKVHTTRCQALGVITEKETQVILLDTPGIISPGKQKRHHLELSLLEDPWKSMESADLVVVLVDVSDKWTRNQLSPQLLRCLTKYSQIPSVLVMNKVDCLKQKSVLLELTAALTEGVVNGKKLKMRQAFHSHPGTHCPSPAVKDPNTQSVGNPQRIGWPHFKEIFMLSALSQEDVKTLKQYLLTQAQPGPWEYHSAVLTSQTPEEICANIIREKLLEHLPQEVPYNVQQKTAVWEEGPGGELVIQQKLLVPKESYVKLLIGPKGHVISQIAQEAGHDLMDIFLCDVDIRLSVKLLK
UniProt Q7Z309: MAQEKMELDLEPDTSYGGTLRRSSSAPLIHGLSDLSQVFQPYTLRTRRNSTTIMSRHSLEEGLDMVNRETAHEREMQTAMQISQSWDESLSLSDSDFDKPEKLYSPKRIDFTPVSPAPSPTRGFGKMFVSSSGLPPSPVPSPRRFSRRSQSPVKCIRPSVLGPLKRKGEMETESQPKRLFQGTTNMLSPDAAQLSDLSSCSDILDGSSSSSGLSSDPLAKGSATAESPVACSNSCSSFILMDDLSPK
UniProt Q96RI0: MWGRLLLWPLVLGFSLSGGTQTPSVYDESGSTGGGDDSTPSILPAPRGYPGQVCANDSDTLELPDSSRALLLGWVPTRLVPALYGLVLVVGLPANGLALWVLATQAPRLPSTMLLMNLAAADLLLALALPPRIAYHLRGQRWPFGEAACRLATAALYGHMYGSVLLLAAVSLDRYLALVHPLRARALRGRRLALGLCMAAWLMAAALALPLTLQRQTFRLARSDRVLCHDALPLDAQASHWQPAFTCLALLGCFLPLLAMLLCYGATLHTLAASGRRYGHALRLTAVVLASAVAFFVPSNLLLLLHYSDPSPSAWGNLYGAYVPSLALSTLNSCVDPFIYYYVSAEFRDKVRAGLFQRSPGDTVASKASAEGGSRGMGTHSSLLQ

Compound in assay [2]: CC1=C(C=C(C=C1)NC(=O)C2=CC(=CC=C2)N(C)C)NC(=O)C3=CC=C(C=C3)O
The gist of the method:
as §1

Compound in assay [3]: CCCCN(Cc1ccc(C(=O)NO)cc1)C(=O)Nc1ccccc1 [Nexturastat A]
The essentials:
as §1

Compound in assay [4]: CCN(CC)Cc1ccc2cc(COC(=O)Nc3ccc(C(=O)NO)cc3)ccc2c1 [givinostat]
The essentials:
as §1

Compound in assay [5]: CCCS(=O)(=O)Nc1ccc(F)c(C(=O)c2c[nH]c3ncc(-c4ccc(Cl)cc4)cc23)c1F [vemurafenib]
The gist of the method:
as §1

Compound in assay [6]: CCN(CCCOc1ccc2c(Nc3cc(CC(=O)Nc4cccc(F)c4)[nH]n3)ncnc2c1)CCOP(=O)(O)O [barasertib]
The gist of the method: as §1

Compound in assay [7]: CC1=NC(=CC=C1)C2=C(N=C(N2)C(C)(C)C)C3=CC4=NC=CN=C4C=C3
The essentials:
as §1

Compound in assay [8]: CC1=CC=C(C=C1)SC2=C3C=C(SC3=CN=C2)C(=O)N
The gist of the method: as §1

Compound in assay [9]: CCCS(=O)(=O)Nc1ccc(F)c(C(=O)c2c[nH]c3ncc(Cl)cc23)c1F
The gist of the method:
as §1

Compound in assay [10]: CCCc1cc(C)[nH]c(=O)c1CNC(=O)c1cc(-c2ccnc(N3CCN(C)CC3)c2)cc2c1cnn2C(C)C
The gist of the method: as §1

The other results are listed elsewhere or left out.

With EPS8L2 isoform 3 (UniProt Q9H6S3), the log2 fold change in [1] was inactive: 0.123; in [2], inactive: -0.099; in [3], inactive: -0.144; in [4], inactive: -0.02.
Turning to FAM135A (UniProt Q9P2D6), the log2 fold change is inactive: -0.178 in assay [1], active: 0.5 in assay [3], inactive: -0.042 in assay [5] and inactive: 0.131 in assay [4].
Turning to ESF1 (UniProt Q9H501), the log2 fold change in assay [1] was inactive: -0.08; in assay [2] it was inactive: -0.101; in [6], inactive: -0.246.
Consider EPS15L1 (UniProt M0QY01), for which the log2 fold change was inactive: 0.099 in assay [1], inactive: -0.004 in assay [7], inactive: 0.167 in assay [3] and inactive: -0.001 in [5].
As to ERN1 (UniProt O75460), the log2 fold change was inactive: -0.103 in [1]; inactive: 0.145 in assay [2]; inactive: -0.034 in assay [8]; inactive: -0.052 in [7]; inactive: 0.05 in assay [3]; inactive: 0.192 in [9]. The log2 fold change is inactive: -0.075 in [10] and inactive: -0.103 in assay [4].
Consider ERO1B (UniProt Q86YB8), for which the log2 fold change in assay [1] was inactive: -0.107; in assay [8], inactive: -0.08; in assay [7] it was inactive: -0.071; in assay [3], inactive: -0.006; in assay [5], inactive: -0.109; in assay [9], inactive: -0.11. For the same target, the log2 fold change in assay [10] was inactive: 0.194; in assay [4] it was inactive: 0.018; in [6], inactive: -0.083.
Consider EXOG (UniProt Q9Y2C4), for which the log2 fold change in assay [2] is inactive: -0.179; in [8], inactive: -0.186; in assay [5], inactive: -0.162; in [9] it was inactive: -0.167; in assay [10] it was inactive: 0.114.
Take EXD2 (UniProt Q9NVH0): the log2 fold change was inactive: -0.088 in assay [1]; inactive: 0.047 in assay [2]; inactive: 0.061 in [8]; inactive: -0.021 in assay [7]; inactive: 0.221 in assay [3]; inactive: 0.055 in [9]. Also, the log2 fold change in assay [4] is inactive: 0.094.
As for FAHD2B (UniProt Q6P2I3), the log2 fold change was inactive: 0.007 in [2]; inactive: 0.087 in [8]; inactive: -0.029 in assay [7]; inactive: 0.114 in [3]; inactive: 0.188 in [9]; inactive: 0.117 in [10]. In addition, the log2 fold change in assay [4] is inactive: 0.004; in assay [6] it was inactive: -0.069.
For ERAL1 (UniProt O75616), the log2 fold change is inactive: 0.183 in assay [1]; inactive: 0.054 in assay [8]; inactive: 0.089 in assay [7]; inactive: 0.138 in assay [3]; inactive: 0.005 in assay [5]; inactive: 0.154 in assay [9]. The log2 fold change is inactive: 0.01 in assay [10], inactive: 0 in assay [4] and inactive: -0.084 in assay [6].
For the target EZH2 isoform 2 (UniProt Q15910), the log2 fold change in assay [1] is inactive: 0.063; in assay [8], inactive: 0.127; in assay [7], inactive: 0.149; in [3], inactive: -0.173; in assay [5], inactive: 0.377; in assay [9], inactive: 0. Besides, the log2 fold change in [10] is active: 0.949; in [4], inactive: 0.097; in [6] it was inactive: 0.045.
Regarding ERI3 (UniProt H0Y4B0), the log2 fold change in [1] is inactive: -0.142; in [3], inactive: 0.098; in assay [4], inactive: 0.209; in assay [6], inactive: 0.275.
With FAM122B isoform 3 (UniProt Q7Z309), the log2 fold change in assay [1] is inactive: -0.032; in assay [2], inactive: -0.03; in assay [7], inactive: -0.079; in [3], inactive: 0; in [5] it was inactive: 0.009; in assay [10], inactive: 0.1. In addition, the log2 fold change in [4] is inactive: 0.002; in assay [6] it was inactive: 0.01.
Take EPHA6 (UniProt Q9UF33): the log2 fold change was inactive: -0.415 in assay [1]; inactive: 0.391 in [2]; inactive: -0.269 in [8]; inactive: -0.264 in assay [7]; inactive: 0.04 in assay [3]; inactive: -0.656 in [5]. Besides, the log2 fold change in assay [9] is inactive: -0.947; in assay [10] it was inactive: -0.501; in [6], inactive: 0.052.
With F2RL3 (UniProt Q96RI0), the log2 fold change in assay [2] was inactive: 0.032; in assay [8], inactive: 0.053; in assay [5], inactive: -0.156; in [9], inactive: 0.035; in assay [4], inactive: -0.06.

Values taken from the supplement of paper PMC10849652.
